The text below walks through data of article PMC2807033.

By UniProt entry, the sequences of proteins in these tests, tags left out. Residues count along the entry.
UniProt P0ACB0: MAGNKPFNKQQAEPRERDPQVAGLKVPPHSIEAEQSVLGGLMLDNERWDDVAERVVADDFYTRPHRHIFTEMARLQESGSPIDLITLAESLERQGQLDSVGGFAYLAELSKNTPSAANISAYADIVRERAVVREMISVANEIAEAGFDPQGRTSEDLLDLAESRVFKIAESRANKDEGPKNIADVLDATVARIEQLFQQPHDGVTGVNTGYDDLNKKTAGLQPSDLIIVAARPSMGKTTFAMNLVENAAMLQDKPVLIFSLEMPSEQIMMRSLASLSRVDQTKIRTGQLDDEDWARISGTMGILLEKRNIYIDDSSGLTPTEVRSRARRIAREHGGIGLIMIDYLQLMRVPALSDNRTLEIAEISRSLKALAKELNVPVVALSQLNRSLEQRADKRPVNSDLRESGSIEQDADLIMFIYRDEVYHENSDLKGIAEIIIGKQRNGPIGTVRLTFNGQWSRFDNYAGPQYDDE
UniProt P09980, residues 641-673: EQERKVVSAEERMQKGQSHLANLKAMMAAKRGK

Experiment [1] deals with E. coli replicative helicase DnaB, purified (E. coli) (UniProt P0ACB0). The experiment can be described thus: SPR; E. coli and B. stearothermophilus DnaB surface-immobilised (860 and 1705 resonance units); Rep and UvrD flowed at 200, 500, 1000, 2000 and 4000 nM; both purified. (In general: In SPR one partner is held on a chip, and binding of the other changes the refractive index at the surface.)

The target is the same in experiment [2]. The experiment can be described thus: native gel or EMSA; forked DNA with 3′ and 5′ ssDNA arms; Rep or UvrD at 1, 5, 10 and 25 nM, DnaB at 100 nM hexamers; both purified.
Experiment [3] deals with C33^Rep peptide (synthetic peptide corresponding to the C-terminal 33 residues of Rep) (E. coli) (UniProt P09980). The experiment in a line: SPR; C33^Rep peptide (260 resonance units) surface-immobilised via an N-terminal biotin tag; DnaB 1 μM monomers and/or DnaC 4 μM monomers, or increasing concentrations of DnaC; both purified.

No constants are given. Whether binding was seen depends on the method and setting.

B1: UvrD helicase (E. coli) (enzyme, UniProt P03018 1-720)
chain: MDVSYLLDSLNDKQREAVAAPRSNLLVLAGAGSGKTRVLVHRIAWLMSVENCSPYSIMAVTFTNKAAAEMRHRIGQLMGTSQGGMWVGTFHGLAHRLLRAHHMDANLPQDFQILDSEDQLRLLKRLIKAMNLDEKQWPPRQAMWYINSQKDEGLRPHHIQSYGNPVEQTWQKVYQAYQEACDRAGLVDFAELLLRAHELWLNKPHILQHYRERFTNILVDEFQDTNNIQYAWIRLLAGDTGKVMIVGDDDQSIYGWRGAQVENIQRFLNDFPGAETIRLEQNYRSTSNILSAANALIENNNGRLGKKLWTDGADGEPISLYCAFNELDEARFVVNRIKTWQDNGGALAECAILYRSNAQSRVLEEALLQASMPYRIYGGMRFFERQEIKDALSYLRLIANRNDDAAFERVVNTPTRGIGDRTLDVVRQTSRDRQLTLWQACRELLQEKALAGRAASALQRFMELIDALAQETADMPLHVQTDRVIKDSGLRTMYEQEKGEKGQTRIENLEELVTATRQFSYNEEDEDLMPLQAFLSHAALEAGEGQADTWQDAVQLMTLHSAKGLEFPQVFIVGMEEGMFPSQMSLDEGGRLEEERRLAYVGVTRAMQKLTLTYAETRRLYGKEVYHRPSRFIGELPEECVEEVRLRATVSRPVSHQRMGTPMVENDSGYKLGQRVRHAKFGEGTIVNMEGSGEHSRLQVAFQGQGIKWLVAAYARLESV
For B1, the binding result is reported as “no binding (tested: 4000 nM)” in experiment [1] and “no binding (tested: UvrD up to 25 nM, DnaB 100 nM hexamers)” in experiment [2].

B2: DnaC helicase loader (E. coli) (protein, UniProt P0AEF0 1-245)
chain: MKNVGDLMQRLQKMMPAHIKPAFKTGEELLAWQKEQGAIRSAALERENRAMKMQRTFNRSGIRPLHQNCSFENYRVECEGQMNALSKARQYVEEFDGNIASFIFSGKPGTGKNHLAAAICNELLLRGKSVLIITVADIMSAMKDTFRNSGTSEEQLLNDLSNVDLLVIDEIGVQTESKYEKVIINQIVDRRSSSKRPTGMLTNSNMEEMTKLLGERVMDRMRLGNSLWVIFNWDSYRSRVTGKEY
For the molecule B2, in experiment [3], the binding entry is “no binding (tested: 4 μM monomers)”.
